Consider 30 targets from the supplement of paper PMC12819154, “High-throughput peptide-centric local stability assay extends protein–ligand identification to membrane proteins, tissues and bacteria” (Nature Structural & Molecular Biology, 2025).

Protein sequences, listed by entry. Tags and fused reporters are not part of them. Lines headed by an entry give the natural chain unless they say otherwise; changes in a name come on top.
UniProt P77402: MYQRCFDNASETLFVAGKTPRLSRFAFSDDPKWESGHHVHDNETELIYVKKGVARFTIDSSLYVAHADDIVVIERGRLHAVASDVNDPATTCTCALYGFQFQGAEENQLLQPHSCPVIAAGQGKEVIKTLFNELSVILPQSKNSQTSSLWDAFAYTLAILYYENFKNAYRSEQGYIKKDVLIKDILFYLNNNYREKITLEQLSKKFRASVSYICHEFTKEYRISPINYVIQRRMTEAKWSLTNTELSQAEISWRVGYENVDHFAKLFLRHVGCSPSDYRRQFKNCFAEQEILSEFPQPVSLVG
UniProt Q47690: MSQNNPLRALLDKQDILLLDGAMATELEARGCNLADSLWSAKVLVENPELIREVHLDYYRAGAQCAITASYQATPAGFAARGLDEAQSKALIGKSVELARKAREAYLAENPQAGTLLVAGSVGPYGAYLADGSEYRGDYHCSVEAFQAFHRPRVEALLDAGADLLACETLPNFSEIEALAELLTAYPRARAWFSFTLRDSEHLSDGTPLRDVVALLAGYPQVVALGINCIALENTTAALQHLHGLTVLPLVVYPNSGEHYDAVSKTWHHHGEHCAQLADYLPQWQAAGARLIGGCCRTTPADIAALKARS
UniProt P77439: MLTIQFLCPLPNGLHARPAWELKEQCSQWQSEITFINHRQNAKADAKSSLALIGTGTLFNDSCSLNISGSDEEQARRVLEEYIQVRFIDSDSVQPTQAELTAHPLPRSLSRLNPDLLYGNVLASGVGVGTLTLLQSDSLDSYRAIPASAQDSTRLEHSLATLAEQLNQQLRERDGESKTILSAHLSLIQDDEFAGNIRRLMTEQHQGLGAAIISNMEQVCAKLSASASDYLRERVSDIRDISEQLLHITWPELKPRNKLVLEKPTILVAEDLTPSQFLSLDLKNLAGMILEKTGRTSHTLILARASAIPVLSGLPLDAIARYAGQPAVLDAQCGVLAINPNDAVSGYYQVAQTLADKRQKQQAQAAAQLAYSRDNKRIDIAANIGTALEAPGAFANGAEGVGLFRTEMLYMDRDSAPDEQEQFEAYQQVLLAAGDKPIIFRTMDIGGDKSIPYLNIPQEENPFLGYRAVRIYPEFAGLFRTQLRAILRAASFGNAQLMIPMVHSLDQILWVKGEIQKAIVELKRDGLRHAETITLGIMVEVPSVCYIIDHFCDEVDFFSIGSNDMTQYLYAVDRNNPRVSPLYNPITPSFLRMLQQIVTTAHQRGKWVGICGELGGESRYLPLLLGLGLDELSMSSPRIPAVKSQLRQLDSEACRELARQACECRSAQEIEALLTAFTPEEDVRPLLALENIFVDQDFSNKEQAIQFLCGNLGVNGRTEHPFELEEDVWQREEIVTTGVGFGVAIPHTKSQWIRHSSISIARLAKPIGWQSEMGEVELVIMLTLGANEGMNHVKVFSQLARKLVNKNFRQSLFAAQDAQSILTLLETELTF
UniProt Q46864: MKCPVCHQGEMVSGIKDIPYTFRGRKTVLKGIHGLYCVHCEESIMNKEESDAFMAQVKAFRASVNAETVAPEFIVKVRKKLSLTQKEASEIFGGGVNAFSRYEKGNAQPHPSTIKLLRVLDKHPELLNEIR
UniProt Q46814: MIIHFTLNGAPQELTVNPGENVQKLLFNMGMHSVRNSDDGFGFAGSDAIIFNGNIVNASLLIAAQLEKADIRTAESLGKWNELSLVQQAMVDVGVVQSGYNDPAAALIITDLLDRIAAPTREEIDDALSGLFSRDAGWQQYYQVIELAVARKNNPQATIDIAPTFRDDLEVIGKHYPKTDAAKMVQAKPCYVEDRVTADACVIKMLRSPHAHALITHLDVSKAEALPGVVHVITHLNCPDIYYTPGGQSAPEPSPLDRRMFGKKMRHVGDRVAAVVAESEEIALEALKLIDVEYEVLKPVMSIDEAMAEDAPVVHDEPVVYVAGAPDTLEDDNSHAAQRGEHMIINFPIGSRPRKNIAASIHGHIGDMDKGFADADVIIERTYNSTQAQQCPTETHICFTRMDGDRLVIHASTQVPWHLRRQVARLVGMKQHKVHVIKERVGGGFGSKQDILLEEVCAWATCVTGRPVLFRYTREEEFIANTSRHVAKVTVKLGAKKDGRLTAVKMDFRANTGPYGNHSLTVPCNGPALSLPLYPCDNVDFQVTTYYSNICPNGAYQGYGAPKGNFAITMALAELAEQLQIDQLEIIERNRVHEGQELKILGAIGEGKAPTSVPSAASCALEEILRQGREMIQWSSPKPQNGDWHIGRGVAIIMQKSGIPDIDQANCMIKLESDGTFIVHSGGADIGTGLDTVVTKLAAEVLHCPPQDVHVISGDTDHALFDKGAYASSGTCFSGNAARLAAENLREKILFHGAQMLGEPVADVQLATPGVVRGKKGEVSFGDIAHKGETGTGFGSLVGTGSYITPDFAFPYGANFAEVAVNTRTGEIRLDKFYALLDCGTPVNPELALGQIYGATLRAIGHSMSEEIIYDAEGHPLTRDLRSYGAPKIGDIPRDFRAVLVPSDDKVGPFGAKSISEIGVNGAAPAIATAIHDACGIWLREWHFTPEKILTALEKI
UniProt P77569: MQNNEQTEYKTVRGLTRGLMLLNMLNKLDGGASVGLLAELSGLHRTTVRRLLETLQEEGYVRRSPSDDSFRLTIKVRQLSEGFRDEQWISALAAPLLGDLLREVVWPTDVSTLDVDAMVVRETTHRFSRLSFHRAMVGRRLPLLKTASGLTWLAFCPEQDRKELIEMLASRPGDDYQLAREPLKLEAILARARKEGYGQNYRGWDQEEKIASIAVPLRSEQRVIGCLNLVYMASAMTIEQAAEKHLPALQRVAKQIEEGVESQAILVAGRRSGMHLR
UniProt Q6BF16: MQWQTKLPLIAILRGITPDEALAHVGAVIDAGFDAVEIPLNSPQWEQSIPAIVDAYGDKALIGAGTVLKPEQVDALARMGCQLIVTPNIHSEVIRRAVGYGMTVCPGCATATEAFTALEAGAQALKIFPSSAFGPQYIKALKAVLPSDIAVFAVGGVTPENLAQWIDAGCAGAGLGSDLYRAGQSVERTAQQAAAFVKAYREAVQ
UniProt V9HVX0: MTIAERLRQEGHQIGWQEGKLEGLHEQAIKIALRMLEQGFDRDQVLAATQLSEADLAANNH
UniProt P77695: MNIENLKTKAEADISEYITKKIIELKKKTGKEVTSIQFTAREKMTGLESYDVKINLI
UniProt Q46812: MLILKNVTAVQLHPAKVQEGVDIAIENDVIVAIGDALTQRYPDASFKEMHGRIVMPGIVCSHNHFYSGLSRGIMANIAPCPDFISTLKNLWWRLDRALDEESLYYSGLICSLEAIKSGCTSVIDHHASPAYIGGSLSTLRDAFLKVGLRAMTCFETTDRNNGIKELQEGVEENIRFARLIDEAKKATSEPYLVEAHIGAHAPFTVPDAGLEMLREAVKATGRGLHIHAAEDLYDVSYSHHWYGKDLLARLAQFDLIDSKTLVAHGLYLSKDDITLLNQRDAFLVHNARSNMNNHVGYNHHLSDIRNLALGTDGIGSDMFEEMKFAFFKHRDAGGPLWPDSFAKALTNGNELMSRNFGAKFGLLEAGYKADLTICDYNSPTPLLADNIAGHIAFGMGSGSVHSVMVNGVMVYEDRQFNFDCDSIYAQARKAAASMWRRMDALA
UniProt P77357: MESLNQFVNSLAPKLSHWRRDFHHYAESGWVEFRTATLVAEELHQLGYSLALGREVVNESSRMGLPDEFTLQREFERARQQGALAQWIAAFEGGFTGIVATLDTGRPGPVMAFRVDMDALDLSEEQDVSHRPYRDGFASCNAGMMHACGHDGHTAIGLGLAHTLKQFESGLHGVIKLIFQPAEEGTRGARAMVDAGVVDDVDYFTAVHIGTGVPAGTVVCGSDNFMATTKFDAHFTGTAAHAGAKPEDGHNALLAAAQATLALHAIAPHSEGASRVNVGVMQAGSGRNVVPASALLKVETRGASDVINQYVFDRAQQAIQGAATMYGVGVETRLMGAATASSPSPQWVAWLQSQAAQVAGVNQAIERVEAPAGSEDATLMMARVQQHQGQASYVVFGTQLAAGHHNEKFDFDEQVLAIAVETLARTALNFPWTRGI
UniProt P77743: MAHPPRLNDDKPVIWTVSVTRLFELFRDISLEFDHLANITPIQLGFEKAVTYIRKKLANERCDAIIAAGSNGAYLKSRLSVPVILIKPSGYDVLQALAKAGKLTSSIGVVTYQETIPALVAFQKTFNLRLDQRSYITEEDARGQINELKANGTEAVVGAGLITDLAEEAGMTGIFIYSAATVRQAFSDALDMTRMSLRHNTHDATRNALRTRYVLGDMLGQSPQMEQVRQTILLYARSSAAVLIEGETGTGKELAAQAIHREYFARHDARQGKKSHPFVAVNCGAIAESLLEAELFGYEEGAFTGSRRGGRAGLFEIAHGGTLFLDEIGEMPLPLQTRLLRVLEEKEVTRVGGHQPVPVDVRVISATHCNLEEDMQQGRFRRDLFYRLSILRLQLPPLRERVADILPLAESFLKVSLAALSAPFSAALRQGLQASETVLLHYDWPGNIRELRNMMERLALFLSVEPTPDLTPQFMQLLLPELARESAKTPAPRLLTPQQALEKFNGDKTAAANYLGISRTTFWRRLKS
UniProt Q46798: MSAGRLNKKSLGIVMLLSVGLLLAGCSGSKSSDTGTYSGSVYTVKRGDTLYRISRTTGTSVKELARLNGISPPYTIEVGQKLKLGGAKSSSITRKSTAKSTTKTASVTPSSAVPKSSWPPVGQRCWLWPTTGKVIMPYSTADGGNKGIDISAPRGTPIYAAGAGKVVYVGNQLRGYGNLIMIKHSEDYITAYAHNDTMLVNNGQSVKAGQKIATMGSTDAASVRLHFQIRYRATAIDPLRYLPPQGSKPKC
UniProt P77475: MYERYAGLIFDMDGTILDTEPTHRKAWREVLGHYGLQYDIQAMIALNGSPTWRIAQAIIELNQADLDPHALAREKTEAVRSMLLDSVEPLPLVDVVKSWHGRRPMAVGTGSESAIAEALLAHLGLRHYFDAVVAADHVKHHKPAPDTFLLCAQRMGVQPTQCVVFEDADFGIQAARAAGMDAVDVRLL
UniProt P77624: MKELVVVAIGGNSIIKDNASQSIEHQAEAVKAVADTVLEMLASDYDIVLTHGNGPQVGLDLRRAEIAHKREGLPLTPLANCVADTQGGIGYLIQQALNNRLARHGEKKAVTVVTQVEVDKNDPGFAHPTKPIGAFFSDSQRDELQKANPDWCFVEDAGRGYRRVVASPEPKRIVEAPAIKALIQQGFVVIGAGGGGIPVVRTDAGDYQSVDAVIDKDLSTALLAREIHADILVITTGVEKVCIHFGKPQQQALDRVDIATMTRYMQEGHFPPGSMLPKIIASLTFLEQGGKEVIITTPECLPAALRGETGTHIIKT
UniProt Q46905: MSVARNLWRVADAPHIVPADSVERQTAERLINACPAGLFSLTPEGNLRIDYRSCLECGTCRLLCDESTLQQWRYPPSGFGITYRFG
UniProt P77467: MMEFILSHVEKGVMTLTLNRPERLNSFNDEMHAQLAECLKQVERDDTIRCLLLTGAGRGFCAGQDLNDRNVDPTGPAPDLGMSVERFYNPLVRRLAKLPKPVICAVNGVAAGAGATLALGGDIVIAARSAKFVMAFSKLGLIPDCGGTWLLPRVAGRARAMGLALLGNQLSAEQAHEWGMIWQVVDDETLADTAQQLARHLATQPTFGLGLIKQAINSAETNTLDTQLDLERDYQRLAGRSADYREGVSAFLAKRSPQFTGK
UniProt Q2EES0: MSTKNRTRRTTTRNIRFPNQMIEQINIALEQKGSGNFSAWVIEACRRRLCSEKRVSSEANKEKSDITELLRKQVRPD
UniProt P77330: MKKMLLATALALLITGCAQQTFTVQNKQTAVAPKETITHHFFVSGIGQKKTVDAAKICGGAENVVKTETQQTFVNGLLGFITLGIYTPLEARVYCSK
UniProt Q47158: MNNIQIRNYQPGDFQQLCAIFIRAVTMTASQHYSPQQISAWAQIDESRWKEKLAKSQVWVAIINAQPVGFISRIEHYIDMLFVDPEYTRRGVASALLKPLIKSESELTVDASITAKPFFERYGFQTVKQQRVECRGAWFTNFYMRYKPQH
UniProt P77318: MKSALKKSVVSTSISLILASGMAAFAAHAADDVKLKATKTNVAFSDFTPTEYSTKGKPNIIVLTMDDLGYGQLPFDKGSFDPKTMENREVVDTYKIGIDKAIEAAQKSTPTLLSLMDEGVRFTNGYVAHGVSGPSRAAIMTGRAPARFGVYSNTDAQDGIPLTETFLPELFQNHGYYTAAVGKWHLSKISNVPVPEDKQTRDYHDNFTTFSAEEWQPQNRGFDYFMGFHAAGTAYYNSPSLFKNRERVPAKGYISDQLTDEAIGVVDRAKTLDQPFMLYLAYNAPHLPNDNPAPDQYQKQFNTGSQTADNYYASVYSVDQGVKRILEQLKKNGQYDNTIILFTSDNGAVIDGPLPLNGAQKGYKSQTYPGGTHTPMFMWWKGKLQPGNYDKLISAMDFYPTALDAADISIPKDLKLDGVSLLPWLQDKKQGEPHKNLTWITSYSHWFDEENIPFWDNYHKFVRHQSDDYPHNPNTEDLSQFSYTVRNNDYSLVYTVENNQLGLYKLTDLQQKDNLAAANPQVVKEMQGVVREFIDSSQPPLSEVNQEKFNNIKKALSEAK

The list shows a part of the results, in another mix than the full data. Most entries show no effect beyond the scatter of the controls.
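Further: lysate desalted by size exclusion to strip endogenous ATP, peptide intensities built from DIA-NN precursor signals, and peptides missing any value discarded before comparison.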

Compound in the experiment: Nc1ncnc2c1ncn2[C@@H]1O[C@H](COP(=O)(O)OP(=O)(O)OP(=O)(O)O)[C@@H](O)[C@H]1O [adenosine 5'-triphosphate]
Put plainly: log2 fold change of tryptic peptide abundance, ligand vs vehicle (limited proteolysis) (log2 ratio); higher = more trypsin-susceptible (destabilized). Conditions: ligand concentration: 5 mM; sample: E. coli desalted lysate; replicate design: treated before aliquoting. The protocol:
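HT-PELSA: desalted E. coli K-12 BW25113 lysate (with 12 mM MgCl2) incubated with 5 mM ATP (pH 7) or water for 30 min at 25 C, then a 4 min trypsin pulse at 22 C. Peptides were quantified by DIA-MS (4 replicates). Value is the peptide log2 fold change (treated/control); negative = stabilized. Scale: negative = ligand-stabilized region.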
Take “UniProt P77713 (peptide sequence: NWSLVSTPLDR, peptide start residue: 47)”: the log2 fold change was 0.35. In the case of “UniProt P77402 (peptide sequence: VGYENVDHFAK, peptide start residue: 255)”, the log2 fold change came out at 0.988. Then “UniProt Q47690 (peptide sequence: TTPADIAALK, peptide start residue: 298)”, with 0.236; and “UniProt P77439 (peptide sequence: MLQQIVTTAHQR, peptide start residue: 593)”, with 0.878.

As to “UniProt Q46864 (peptide sequence: VLDKHPELLNEIR, peptide start residue: 119)”, the log2 fold change is 0.262.

Consider “UniProt P77333 (peptide sequence: ITTVEHAAK, peptide start residue: 98)”, for which the log2 fold change was -0.259.

“UniProt Q46814 (peptide sequence: PCYVEDR, peptide start residue: 189)”: the log2 fold change is -0.72.

In the case of “UniProt P77569 (peptide sequence: SPSDDSFR, peptide start residue: 64)”, the log2 fold change was -0.673.

As to “UniProt Q6BF16 (peptide sequence: ALIGAGTVLKPEQVDALAR, peptide start residue: 60)”, the log2 fold change was -0.337. For the target “UniProt V9HVX0 (peptide sequence: LEGLHEQAIK, peptide start residue: 21)”, the log2 fold change was -0.428. Then “UniProt P77695 (peptide sequence: TGKEVTSIQFTAREK, peptide start residue: 29)”, with -0.382; and “UniProt Q46812 (peptide sequence: NVTAVQLHPAK, peptide start residue: 6)”, with -0.277; and “UniProt P77489 (peptide sequence: AGIDPVEFR, peptide start residue: 372)”, with 0.47.

In the case of “UniProt P77561 (peptide sequence: KIESYQGAAGGWGAVK, peptide start residue: 4)”, the log2 fold change was found to be 0.162. Then “UniProt P77357 (peptide sequence: VNVGVMQAGSGR, peptide start residue: 276)”, with 0.238; and “UniProt P77239 (peptide sequence: IDPTQTQNLGVK, peptide start residue: 84)”, with 0.282.

On to “UniProt Q46904 (peptide sequence: VPASELLTR, peptide start residue: 243)”, for which the log2 fold change was -0.232.

For the target “UniProt P77743 (peptide sequence: TAAANYLGISR, peptide start residue: 509)”, the log2 fold change is 0.783.

Consider “UniProt P77247 (peptide sequence: NELPDTLGLR, peptide start residue: 44)”, for which the log2 fold change is 0.406.

As to “UniProt P77434 (peptide sequence: SYNMAGWR, peptide start residue: 245)”, the log2 fold change came out at 0.387. On to “UniProt Q46798 (peptide sequence: RGDTLYR, peptide start residue: 46)”, for which the log2 fold change stood at 0.0741. The value for “UniProt P77475 (peptide sequence: AAGMDAVDVR, peptide start residue: 177)” was 0.0514; that for “UniProt P77624 (peptide sequence: RIVEAPAIK, peptide start residue: 172)” was 0.517.

Consider “UniProt Q46905 (peptide sequence: VADAPHIVPADSVER, peptide start residue: 10)”, for which the log2 fold change worked out at 0.402. The value for “UniProt P77467 (peptide sequence: EGVSAFLAK, peptide start residue: 246)” was -0.511; that for “UniProt Q46888 (peptide sequence: DLGLVADTAK, peptide start residue: 247)” was -0.525; that for “UniProt Q2EES0 (peptide sequence: VSSEANKEK, peptide start residue: 55)” was -0.681.

As to “UniProt P77330 (peptide sequence: ICGGAENVVK, peptide start residue: 57)”, the log2 fold change came out at 0.422. As to “UniProt Q47158 (peptide sequence: GVASALLKPLIK, peptide start residue: 91)”, the log2 fold change turned out to be 0.815.

In the case of “UniProt P77318 (peptide sequence: DNLAAANPQVVK, peptide start residue: 513)”, the log2 fold change is -0.181.
